This note sets out measurements from patent US20180112198.

At least one result comes from cells or an extract, where the contact may be indirect. A negative result means that nothing was seen under these conditions. Tags and fusion partners may be left off the protein sequences shown.

The series concerns the target T1, GFP/MCPIP1 fusion (ZC3H12A) (Homo sapiens) (UniProt Q5D1E8).
T1 sequence (limits assumed): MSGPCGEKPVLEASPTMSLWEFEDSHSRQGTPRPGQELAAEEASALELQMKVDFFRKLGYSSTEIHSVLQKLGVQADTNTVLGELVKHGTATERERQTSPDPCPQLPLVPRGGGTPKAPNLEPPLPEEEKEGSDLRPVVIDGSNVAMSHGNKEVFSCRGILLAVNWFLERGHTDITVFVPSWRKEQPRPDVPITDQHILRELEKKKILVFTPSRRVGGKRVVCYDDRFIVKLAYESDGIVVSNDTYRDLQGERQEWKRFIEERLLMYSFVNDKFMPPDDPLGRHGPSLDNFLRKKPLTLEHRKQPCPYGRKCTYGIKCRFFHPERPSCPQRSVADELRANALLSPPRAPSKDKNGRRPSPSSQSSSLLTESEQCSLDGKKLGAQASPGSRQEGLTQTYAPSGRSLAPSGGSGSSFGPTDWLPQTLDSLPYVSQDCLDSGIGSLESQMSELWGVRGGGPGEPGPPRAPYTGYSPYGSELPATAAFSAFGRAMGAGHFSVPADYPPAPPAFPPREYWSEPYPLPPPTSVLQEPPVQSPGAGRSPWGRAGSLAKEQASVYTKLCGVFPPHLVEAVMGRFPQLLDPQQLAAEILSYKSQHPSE
Put plainly: EMSA. To be noted: stem-loop disrupted, cell lysate, protein in a lysate after overexpression, protein details: GFP fusion, Dox-induced in MDA-MB-231/Tet-On cells, label: 3' biotin. For orientation: Mobility shift assays separate free from complexed probe on a gel.

With “UGAGGAGACAUUGGCUUGC [huBcl2L1 3'UTR mut probe]”, under “variant of huBcl2L1 3'UTR WT probe”, the binding result is “no binding”. Take “UGCAUAUAUUCGGAAUGACAUU [huBIRC3 3'UTR mut probe]”: the binding result (variant of huBIRC3 3'UTR WT probe) is “no binding”.
